Over roughly 33,000 sequences, “E-score (-0.5 to 0.5)” has its median near -8e-05; the highest 2% begin near 0.23. Some of the results follow.
Molecular target: T1, Nrg2 (UniProt P38082)
T1 sequence: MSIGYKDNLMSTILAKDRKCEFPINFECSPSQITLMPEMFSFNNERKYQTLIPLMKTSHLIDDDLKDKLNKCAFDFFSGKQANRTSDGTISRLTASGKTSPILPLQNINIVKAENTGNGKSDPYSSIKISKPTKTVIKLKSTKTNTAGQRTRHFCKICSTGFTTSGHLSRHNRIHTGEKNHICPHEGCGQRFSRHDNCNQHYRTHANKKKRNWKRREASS
Test: PBM E-score (8-mer binding enrichment) (E-score (-0.5 to 0.5)); higher = stronger / more preferred TF binding
Settings: protein concentration: 100 nM; construct: GST-full length
Summary of the method: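 GST-tagged yeast TFs (full-length or DNA-binding domain) were made by PURExpress in vitro transcription/translation and applied at about 100-200 nM to universal all-10-mer Agilent arrays. The arrays were made double-stranded by primer extension, on fresh or once-stripped slides. Bound protein was detected with fluorescent anti-GST, and scans were normalised with masliner. Each ungapped eight-base word, pooled with its reverse complement, received an E-score (modified Wilcoxon-Mann-Whitney statistic) from the Universal PBM Analysis Suite.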

Sequence	PBM E-score
CGAAAAGC	-0.0517
CAGAGGAA	-0.053
CCCGTGTC	-0.0522
CCATTCGC	0.0979
TGTCGTAA	0.0488
TCCAAGCA	-0.0496
CTGTCTAA	0.212
TCTAGGCA	-0.195
CACGGTCG	-0.06
GATTCCGC	0.0999
GGCTTTTA	-0.316
ACGGTGGG	-0.00943
ATCGTAAC	0.128
CGGTACCG	-0.0366
AAATAAGC	0.0818
ACTTGTAA	-0.0121
CGCGAGGA	0.0651
AATATGTC	0.157
GCTGGTCC	0.0876
AAGCGGGC	-0.268
ATACCTCG	0.0803
CCTATCGC	-0.134
ATGGCGCC	0.0356
AGACGGCA	-0.0306
TATGTCAA	0.14

Sequence	PBM E-score
CCGATCCG	-0.139
AATCGCGA	0.185
CCATAAGC	-0.131
AAGTCGCA	0.0959
GGCAAGGA	0.00691
CAGCACTG	-0.0889
AAGAGAGC	-0.127
CCGGTAAA	-0.0724
ACTCGACC	-0.185
ATAGATAA	0.121
CACTGTAG	0.185
CCACAGGC	-0.246
GCCACAAC	0.0257
AGTACCGA	-0.153
AGAGCGCC	0.0188
GATTGACC	-0.119
ACGAGCCA	-0.0675
AAGCCCGC	-0.0421
GACTGATC	-0.0428
AGCCATCG	-0.00776
AGTCTAAT	-0.0606
AGGGTCTG	0.216
GATTGACA	0.186
CCAAAGAA	-0.029
AGACATTC	-0.0988

Sequence	PBM E-score
CCTGTGCA	-0.0366
CAGACCAG	-0.0557
ATAACTTA	0.0524
GAGTTGTA	0.0221
CCCCGCCG	0.011
CGACTGAG	-0.0854
AGTGGAAT	0.02
CATTAACA	-0.0603
AGCTGAAT	0.112
CATCAGTA	0.0579
CCTAACGC	0.0164
CACTGTTA	-0.0501
CGTTCCTC	-0.0798
AACCGAGG	-0.239
CATTGTAA	-0.00214
ACCGCTGC	-0.123
AACCGCAG	-0.153
ACGACTCC	-0.0677
CATCATGA	0.118
ATGATTGA	0.086
ATAACCTG	-0.0869
ACAGCTGC	-0.0727
ACCACACA	0.148
GGAGGGCC	-0.112
CTGACCTA	0.0551

Sequence	PBM E-score
ATATGGTC	0.139
CCACGCAC	0.0752
CTCGCTTA	0.132
ATCTGCCA	-0.0835
AAATTGTT	0.0684
ACTCCCAT	-0.0967
GGCCTCCC	-0.154
AGAATTCA	0.0705
CTTCTGGA	-0.0666
ACTGCAGT	0.00777
AGGGCCAG	-0.0582
TGCTTCCA	-0.307
ACACATTG	0.105
CGCTGTAA	0.0109
ACGAACAT	0.129
ATTTTCGG	0.152
TTATACAA	0.0467
ATTGACTG	0.016
CATCTCCA	0.034
CCGGGACG	-0.202
ATAAGGAA	-0.15
GGGATTAA	0.139
AGAAATCT	-0.0175
GACATGCC	-0.115
GTCATCTA	0.0314

Given in CSV form: part of the list above.
Sequence,PBM E-score
CATCATGA,0.118
ATGATTGA,0.086
ATAACCTG,-0.0869

Next part:

Sequence	PBM E-score
GTGTTGCA	-0.0333
AGCCCTAC	-0.0905
CTATTAAC	0.0717
CAATAGCG	0.0188
TGGGAGAA	-0.271
ACATCCGC	-0.00443
ATCAGCCG	-0.0958
ACTCCCAG	-0.0427
ACAGGAGA	-0.0632
CATCCGAC	0.0774
ACAGGATG	0.0354
CTCCGTGC	-0.168
ACAGGGAC	0.339
AGATAGAA	-0.0277
ATCAACAG	0.141
CTTATCGA	0.0597
TAAACCCA	0.0992
CATGAGGC	-0.109
GTCTATAA	0.15
ACACTATA	0.181
AGCTCCAT	-0.0637
GGTATATA	0.169
AAGATAGG	-0.0249
AAGGCCCG	-0.333
ATTGGGGC	0.155

Sequence	PBM E-score
AGCATATG	-0.178
ACAAATCG	0.106
GTGAGCAA	-0.0485
GCGATGCC	-0.136
CCCCTCAC	0.113
GAGTCAGC	-0.151
CCTAGGAC	-0.19
GGAACTTA	0.00245
AGACATGA	0.0439
GCTTCTGA	0.0375
GCTACGCA	-0.108
ATTCACAC	0.0789
AAGAGCGT	0.0682
ACAAAGGC	-0.123
AATGTGCG	0.187
AGAACATC	0.0252
CTAACTTC	-0.0311
AGCTTCTG	0.00485
GGCACTGA	-0.0586
AACGTGCC	-0.0639
GCTTCAAA	-0.0192
GGACCTCA	-0.0157
ATGAGGGC	-0.0863
CGGTAAGC	-0.126
AGCTTAAA	-0.0453

Reprinted at random: seven entries already listed
Sequence	PBM E-score
AATCGCGA	0.185
CAGAGGAA	-0.053
ACAGGGAC	0.339
GTCATCTA	0.0314
GAGTTGTA	0.0221
TCTAGGCA	-0.195
ACATCCGC	-0.00443

Carrying on.

Sequence	PBM E-score
AACCTATG	-0.101
GTCGCGAC	0.37
CCGCAAGC	-0.121
CACGTGCA	0.0587
CTTAGCAA	0.0486
GAAATTCA	0.132
ACTGATTC	0.054
GACATAAC	0.0528
AGATTTTG	0.0708
CACAGAGC	-0.0147
AGTGTAGG	-0.00233
TGCGGACA	0.0396
GGGCTACA	-0.112
ACTCAAGT	-0.101
GCGCTTAC	-0.147
AACAACAT	-0.0432
CACCCGCA	-0.00365
CCTTAATC	0.0766
CGCTGCTC	-0.0853
AAATTCGC	0.234
CAATACAG	0.125
ATCGCGTG	0.117
CCGACAGG	0.0606
CTACAATC	0.104
CGGATATA	0.128

Some of the entries above in a different format:
CACGTGCA
  PBM E-score = 0.0587
GAAATTCA
  PBM E-score = 0.132
CACAGAGC
  PBM E-score = -0.0147
CTACAATC
  PBM E-score = 0.104

(next part)

Sequence	PBM E-score
CTTTGGAA	-0.152
CAACGCCC	-0.0735
CGGCTTGA	-0.0482
TAAACAAA	0.0611
CCAGCACC	-0.141
CCTTACCA	-0.137
ACCACCCC	-0.2
AATGTTAT	0.0988
ACTTAAAG	-0.164
CTGTTAAC	0.221
CACCTCTA	-0.15
CGATCAGC	-0.0819
AAGGTTAG	-0.0412
AGATCCCG	0.228
GGCCAGTA	0.163
CGTATTTA	0.248
CAGGGCCC	0.42
ACTCTCAA	-0.159
AGGCTACA	-0.0869
ATGACACC	0.0972
ACTCCTAG	-0.186
GGGGCTGA	-0.0972
TCGGAACA	0.313
AATGGACG	0.141
GAGCGTCC	-0.271

Sequence	PBM E-score
AGAGTCGC	0.0601
AAGGGCCT	0.0464
ATTTAACG	-0.0637
GAAACCGC	0.153
AATGTTGG	0.064
CGTAGCCC	-0.252
CCAATGCC	-0.132
ACGTATCT	-0.0443
GCACTACA	-0.139
ATCGATTA	0.0753
AATATCTG	0.0127
TAGTTCCA	0.0983
CACTGGGA	-0.0219
AGGGGGGA	-0.241
AATGGTGC	-0.0715
ATTCTTCA	0.0174
GACTGATA	-0.2
CGGTACAC	-0.182
AACAAGAC	0.147
ACTAACGC	-0.045
AGCTCCGC	-0.0361
ACTGAACC	-0.111
CTGATGTC	0.228
GGGCATCA	-0.154
AACGGCGA	0.303

Sequence	PBM E-score
ATCTTAAC	0.0939
CGCGCGGC	0.296
CAAAAAGC	0.102
AACAATTC	-0.00547
AGGTTTAG	-0.18
ATTGTCCA	0.206
CAGGTCTC	-0.152
TATCCCGA	0.118
AATTAGTG	0.146
CCTGGCAC	-0.106
CTATTAAA	0.151
TCGTTCAA	0.039
GAATCCCA	0.0684
CAGGGCCG	0.088
CGGAGTCA	-0.0858
AGTATAAC	-0.131
CCCGGCTA	-0.28
GGTTAACA	0.0255
CAACCCTC	0.0136
ATTGCTGC	0.138
ACCTTAGA	-0.0789
AGAAGCTG	-0.0403
AGGATGCC	-0.18
ACAGATTA	-0.118
AGTAGAAC	-0.229

Sequence	PBM E-score
GGATCTTA	0.0778
ATCATAAC	0.0629
CCAGTAGA	-0.0606
CTAGAAGC	-0.2
AGCATTCG	-0.118
AAGGAAGT	0.0362
ATCTTGTG	0.0148
CCCCGGCC	-0.266
CATAACCG	-0.0644
CGCCTCGA	0.16
ATCCTCAG	0.1
AACAAAGC	0.0731
AGTTTCAT	0.274
CCCCTACA	-0.118
ACGCAAAA	0.0462
GCAGCATA	0.0385
CCACCGCA	0.0791
TACATTCA	-0.00365
CCCGCGCA	0.128
TGACGACA	0.145
GGTTTTAC	-0.257
CCTTCCGA	-0.252
TACAGACA	-0.00813
GCACTGGC	-0.204
AACGGTAG	-0.0377

Sequence	PBM E-score
ATGCTTAC	-0.198
GATCGTGC	0.183
CTTCGAAG	0.0935
CACCAGAC	-0.0776
GAAAAGCA	-0.0271
CCGCCGCC	0.0918
AATTGGAG	-0.0651
GCAAGCAA	0.00372
CATGCGAC	0.0328
CAAATTTA	0.0933
GAGCACAA	0.0508
ACTCGTCC	-0.116
GCGCGCGA	0.251
ACAGATGT	-0.0767
AGTCGACT	0.243
ACTTGGAG	-0.108
ACTATGGC	0.0287
AGGTTTGC	0.0195
GGTGCGCA	0.107
ATACCCAC	0.0337
ATTCGACG	0.138
AGTGTGGA	-0.0249
TATTCAAA	0.147
GACGAAAC	0.00944
ACATTCCC	0.064

Sequence	PBM E-score
CTCATCAG	0.247
GCTTCACC	-0.131
TCTCCCAA	-0.0633
ATGTTTAG	0.188
AGGATTTA	-0.00422
AGGACCGA	-0.0557
CAGCGTGA	-0.0547
AGTGTCAT	0.0749
AAGATAAA	0.131
ACGCGAGG	0.0848
AAGCGGTA	-0.176
CCTCTATC	-0.0554
AACTTCGC	0.0614
CTGCGCCA	0.083
ATAATGAC	-0.2
AGGTTGAG	-0.25
TGTCCGAA	0.143
AACCTCTA	-0.1
CTGTTTTC	-0.0788
ACAGGAGC	-0.0278
GTGCGGTA	0.0282
CCAGCAGG	-0.249
AGTAGAGC	-0.226
AGCTCAAT	0.114
CTTACTCA	-0.154

Sequence	PBM E-score
AACTGGAG	-0.0807
CCGGTACC	-0.221
AACGTATC	-0.0524
ATAGAAAC	0.0807
AGGTCTGC	-0.178
AAGAGCTT	-0.0877
GTAACGGA	0.0938
GTAAGGAC	-0.044
ACAGGACG	-0.108
GTTTAAAC	-0.0462
AATACTAC	0.0385
ACGCTATC	0.0664
AGTAGACG	-0.0233
GAAGTGTA	-0.109
CCTCCGTC	-0.174
ATACTATC	0.013
GCGTGCCA	-0.097
GATTCCAA	0.113
CCCAGGAC	-0.142

Reference: the supplement of paper PMC3334620
